Measured values: patent US20120315270A1
No constants are given. Whether binding was seen depends on the method and setting. Some entries that bind do so weakly or less than the wild type.

Legend:
[1] = target: 1lp1b-003; test: SPR, Fab immobilized on CM5 chip
[2] = target: 1lp1b-003; test: SPR (Example 3)

B1: motavizumab Fab (Fab, V domains shown)
VH: QVTLRESGPALVKPTQTLTLTCTFSGFSLSTAGMSVGWIRQPPGKALEWLADIWWDDKKHYNPSLKDRLTISKDTSKNQVVLKVTNMDPADTATYYCARDMIFNFYFDVWGQGTTVTVSS
VL: DIQMTQSPSTLSASVGDRVTITCSASSRVGYMHWYQQKPGKAPKLLIYDTSKLASGVPSRFSGSGSGTEFTLTISSLQPDDFATYYCFQGSGYPFTFGGGTKVEIK
In the case of B1, the binding [1] is reported as “binds” and the binding [2] is reported as “binds”.
